# Measurements: the supplement of paper PMC9744312
# Structures can show the parent of a compound that is named as a salt. Some of the results follow. Single values of this set are uncertain.
# Test system: Peyronie's disease tunica albuginea primary fibroblasts
# Experiment: inhibition of TGF-beta1-induced alpha-SMA expression (myofibroblast transformation), relative to TGF-beta1-only and untreated controls; higher = stronger inhibition of myofibroblast transformation
# Conditions: 10 µM; TGF-beta1 10 ng/mL; 72 h
row,Structure (SMILES),inhibition of TGF-beta1-induced alpha-SMA expression [%]
1,O=C1[C@H](CC[C@H](O)c2ccc(F)cc2)[C@@H](c2ccc(O)cc2)N1c1ccc(F)cc1 [Ezetimibe],11.1
2,COC(=O)C1=C(C)NC(C)=C(C(=O)OCCN(C)Cc2ccccc2)C1c1cccc([N+](=O)[O-])c1 (stereo not given) [Nicardipine HCl],-30.5
3,COC(=O)C1=C(C)NC(C)=C(C(=O)OCCN(C)Cc2ccccc2)C1c1cccc([N+](=O)[O-])c1 (stereo not given) [Nicardipine],29.7
4,OC[C@H]1O[C@@H](c2ccc(Cl)c(Cc3ccc(O[C@H]4CCOC4)cc3)c2)[C@H](O)[C@@H](O)[C@@H]1O,65.8
5,CCCC(=O)[O-].[Na+] [Sodium butyrate],45.3
6,C/C=C(/C)C(=O)O[C@H]1[C@H](OC(C)=O)[C@@]2(CO)C(CC1(C)C)C1=CCC3[C@@]4(C)CCC(O[C@@H]5O[C@H](C(=O)O)[C@@H](O[C@@H]6O[C@H](CO)[C@@H](O)[C@H](O)[C@H]6O)[C@H](O)[C@H]5O[C@@H]5O[C@H](CO)[C@@H](O)[C@H](O)[C@H]5O)[C@](C)(CO)C4CC[C@@]3(C)[C@]1(C)C[C@H]2O.C/C=C(\C)C(=O)O[C@H]1[C@H](OC(C)=O)[C@@]2(CO)C(CC1(C)C)C1=CCC3[C@@]4(C)CCC(O[C@@H]5O[C@H](C(=O)O)[C@@H](O[C@@H]6O[C@H](CO)[C@@H](O)[C@H](O)[C@H]6O)[C@H](O)[C@H]5O[C@@H]5O[C@H](CO)[C@@H](O)[C@H](O)[C@H]5O)[C@](C)(CO)C4CC[C@@]3(C)[C@]1(C)C[C@H]2O (stereo not given in full) [Escin],54.4
7,Oc1cc(O)c(Cl)cn1 [Gimeracil],2.11
8,COC(=O)C1=C(C)NC(C)=C(C(=O)OCC(C)C)C1c1ccccc1[N+](=O)[O-] (stereo not given) [Nisoldipine],16.9
9,CN(C)CCOC(c1ccc(Cl)cc1)c1ccccn1 (stereo not given) [CarbinoxaMine Maleate],26.8
10,O=C1CCc2ccc(OCCCCN3CCN(c4cccc(Cl)c4Cl)CC3)cc2N1 [Aripiprazole],49.3
11,NCCCC(N)(C(=O)O)C(F)F (stereo not given) [Eflornithine hydrochloride hydrate],-0.902
12,CNCc1cc(-c2ccccc2F)n(S(=O)(=O)c2cccnc2)c1 [Vonoprazan Fumarate (TAK-438)],29.3
13,O=C1C(O)=C([C@H]2CC[C@H](c3ccc(Cl)cc3)CC2)C(=O)c2ccccc21 [Atovaquone],9.7
14,Cc1ccccc1C(OCCN(C)C)c1ccccc1 (stereo not given) [Orphenadrine Citrate],12.3
15,Cc1ccccc1C(OCCN(C)C)c1ccccc1 (stereo not given) [Orphenadrine Hydrochloride],17.9

# A different layout for part of the listing above:
row	Structure (SMILES)	inhibition of TGF-beta1-induced alpha-SMA expression [%]
5	CCCC(=O)[O-].[Na+] [Sodium butyrate]	45.3
10	O=C1CCc2ccc(OCCCCN3CCN(c4cccc(Cl)c4Cl)CC3)cc2N1 [Aripiprazole]	49.3
11	NCCCC(N)(C(=O)O)C(F)F (stereo not given) [Eflornithine hydrochloride hydrate]	-0.902
14	Cc1ccccc1C(OCCN(C)C)c1ccccc1 (stereo not given) [Orphenadrine Citrate]	12.3
